The results in this text go back to the supplement of paper PMC4635364.

In assay [1] the test system is ReNCell VM. The assay can be described thus: neuronal differentiation score (DCX+ cell fraction vs untreated, manual image score) (score (-3 to 3)); higher = more neuronal differentiation. The note with it: 2 uM, 2 weeks.
In assay [2] the test system is ReNCell VM. The assay can be described thus: dopaminergic neuron differentiation score (TH+ cell fraction vs untreated, manual image score) (score (0 to 3)); higher = more TH+ dopaminergic neuron differentiation. The note with it: 2 uM, 4 weeks, BDNF 10 ng/ml + GDNF 10 ng/ml.

Structures can show the parent of a compound that is named as a salt. Some of the results follow. This data set is noisy: repeats of one test often differ as much as different tests do.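 Cells: ReNCell VM human fetal ventral-midbrain neural progenitors, differentiated mitogen-free. Blinded raters compared doublecortin-stained (early neurons) or tyrosine hydroxylase-stained (dopaminergic neurons) images with untreated wells, where 0 means no change. After repeats and both raters were averaged, compounds scoring 2 or above became hits for retesting.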

Consider `CCN1CCN(C(=O)N[C@@H](C(=O)N[C@@H]2C(=O)N3[C@@H]2SC(C)(C)[C@@H]3C(=O)O)c2ccccc2)C(=O)C1=O`, for which the neuronal differentiation score in the assay with ReNCell VM [1] (library: Spectrum) was inactive: 0. Also, the “dopaminergic neuron differentiation score” value with ReNCell VM [2] (library: Spectrum) was inactive: 0.

Consider `COC(=O)C[C@H]1C(C)(C)[C@@H](O)[C@@H]2CC3=C4CC(O)O[C@@H](c5ccoc5)[C@]4(C)CCC3[C@@]1(C)C2=O` (stereo partly drawn) [3,16-DIDEOXYMEXICANOLIDE-3beta-DIOL], for which the neuronal differentiation score in the assay on ReNCell VM [1] (library: Spectrum) is inactive: 0. Besides, the “dopaminergic neuron differentiation score” value in the assay on ReNCell VM [2] (library: Spectrum) was inactive: 0.

With `C[C@@H]1O[C@@H](O[C@H]2C(=O)c3c(O)cc(O)cc3O[C@@H]2c2ccc(O)c(O)c2)[C@H](O)[C@H](O)[C@H]1O` [Astilbin], the neuronal differentiation score with ReNCell VM [1] (library: Phytochemical) is inactive: 0. Also, the “dopaminergic neuron differentiation score” value in the assay with ReNCell VM [2] (library: Phytochemical) was active: 2.

Consider `CCN(CCCc1ccccc1)CCCc1ccccc1`, for which the neuronal differentiation score in the assay with ReNCell VM [1] (library: Spectrum) is inactive: 0. Besides, in the assay with ReNCell VM [2] (library: Spectrum), the “dopaminergic neuron differentiation score” value is inactive: 0.

Regarding `O=C1CCc2c(ccc3ccccc23)O1` [Splitomicin], the neuronal differentiation score in the assay with ReNCell VM [1] (library: Tocriscreen) was inactive: 0. The “dopaminergic neuron differentiation score” value in the assay on ReNCell VM [2] (library: Tocriscreen) was inactive: 0.

For `C#CC1(O)CC[C@H]2[C@@H]3CCC4=CC(=O)CC[C@@H]4[C@H]3CC[C@@]21CC` (some centres undefined), the neuronal differentiation score in the assay on ReNCell VM [1] (library: Spectrum) is inactive: 0. In addition, the “dopaminergic neuron differentiation score” value in the assay with ReNCell VM [2] (library: Spectrum) is inactive: 0.

As for `C#C[C@]1(OC(C)=O)CC[C@H]2[C@@H]3CCC4=C[C@@H](OC(C)=O)CC[C@@H]4[C@H]3CC[C@@]21C`, the neuronal differentiation score in the assay with ReNCell VM [1] (library: Spectrum) was inactive: 0. Also, in the assay with ReNCell VM [2] (library: Spectrum), the “dopaminergic neuron differentiation score” value is inactive: 0.

On to `CCCn1c(=O)c2[nH]c(-c3ccc(OCC(=O)Nc4ccc(C#N)cc4)cc3)nc2n(CCC)c1=O`, for which the neuronal differentiation score in the assay on ReNCell VM [1] (library: LOPAC) was inactive: 0. In addition, the “dopaminergic neuron differentiation score” value with ReNCell VM [2] (library: LOPAC) was inactive: 0.

With `O=C(O)CCC(=O)OC[C@@H](NC(=O)C(Cl)Cl)[C@H](O)c1ccc([N+](=O)[O-])cc1`, the neuronal differentiation score with ReNCell VM [1] (library: Spectrum) is inactive: 0. The “dopaminergic neuron differentiation score” value with ReNCell VM [2] (library: Spectrum) was inactive: 0.

As for `O=C(O)CN(CCN(CC(=O)O)CC(=O)O)CCN(CC(=O)O)CC(=O)O` [Pentetic acid], the neuronal differentiation score in the assay with ReNCell VM [1] (library: Prestwick) was inactive: 0. The “dopaminergic neuron differentiation score” value with ReNCell VM [2] (library: Prestwick) was inactive: 0.

Regarding `O=c1ncccn1[C@@H]1O[C@H](CO)[C@@H](O)[C@H]1O` [Zebularine], the neuronal differentiation score with ReNCell VM [1] (library: Tocriscreen) is inactive: 0. The “dopaminergic neuron differentiation score” value in the assay on ReNCell VM [2] (library: Tocriscreen) was inactive: 0.

Consider `C[C@H]1C[C@@H]2[C@H]([C@@H](O)C[C@@]3(C)[C@H]2CC[C@]3(O)C(=O)CO)[C@@]2(C)C=CC(=O)C=C12` [Methylprednisolone, 6-alpha], for which the neuronal differentiation score in the assay with ReNCell VM [1] (library: Prestwick) is inactive: 0. In addition, the “dopaminergic neuron differentiation score” value in the assay on ReNCell VM [2] (library: Prestwick) was inactive: 0.

Take `CCCCCCCCCCC/C=C\C(C)(C)/C=C\CCCC(=O)O` [7,7-Dimethyl-(5Z,8Z)-eicosadienoic acid]: the neuronal differentiation score in the assay on ReNCell VM [1] (library: LOPAC) is inactive: 0. For the same compound, the “dopaminergic neuron differentiation score” value with ReNCell VM [2] (library: LOPAC) was inactive: 0.

Regarding `Cc1ccccc1C(=O)c1ccc(Nc2ccc(Br)cc2N)cc1Cl`, the neuronal differentiation score in the assay on ReNCell VM [1] (library: Tocriscreen) was inactive: 0. Besides, in the assay on ReNCell VM [2] (library: Tocriscreen), the “dopaminergic neuron differentiation score” value was inactive: 0.

With `CN(C)[C@@H]1C(O)=C(C(N)=O)C(=O)[C@@]2(O)C(O)=C3C(=O)c4c(O)cccc4[C@@](C)(O)[C@H]3C[C@@H]12`, the neuronal differentiation score in the assay with ReNCell VM [1] (library: Spectrum) is inactive: 0. The “dopaminergic neuron differentiation score” value in the assay on ReNCell VM [2] (library: Spectrum) was inactive: 0.

In the case of `C=C1c2cccc(O)c2C(=O)C2=C(O)[C@]3(O)C(=O)C(C(N)=O)=C(O)[C@@H](N(C)C)[C@@H]3[C@@H](O)[C@H]12`, in the assay on ReNCell VM [1] (library: Spectrum), the neuronal differentiation score was inactive: 0. Further, the “dopaminergic neuron differentiation score” value with ReNCell VM [2] (library: Spectrum) is inactive: 0.

As for `CN1CCCC(CC2c3ccccc3Sc3ccccc32)C1` (centres undefined) [Metixene hydrochloride], the neuronal differentiation score with ReNCell VM [1] (library: Prestwick) was inactive: 0. The “dopaminergic neuron differentiation score” value in the assay with ReNCell VM [2] (library: Prestwick) is inactive: 0.

As for `CNCCNS(=O)(=O)c1cccc2cnccc12` [H-8 dihydrochloride], the neuronal differentiation score with ReNCell VM [1] (library: LOPAC) was inactive: 0. In addition, the “dopaminergic neuron differentiation score” value in the assay with ReNCell VM [2] (library: LOPAC) was inactive: 0.

For `CCCCC1(C2CCCC2)Cc2cc(OCC(=O)O)c(Cl)c(Cl)c2C1=O` (stereo in doubt) [R(+)-Butylindazone], the neuronal differentiation score in the assay on ReNCell VM [1] (library: LOPAC) was inactive: 0. In the assay on ReNCell VM [2] (library: LOPAC), the “dopaminergic neuron differentiation score” value is inactive: 0.

`COc1ccc2c(c1)N(C(C)=O)C1C3COC(C)C4CN5CCC21C5CC43` (centres undefined) [Strychnospermine]: the neuronal differentiation score in the assay with ReNCell VM [1] (library: Phytochemical) was inactive: 0. Moreover, the “dopaminergic neuron differentiation score” value with ReNCell VM [2] (library: Phytochemical) was inactive: 0.

`CC(=O)OCC(=O)[C@@]12N=C(C)O[C@@H]1C[C@H]1[C@@H]3CCC4=CC(=O)C=C[C@]4(C)[C@H]3[C@@H](O)C[C@@]12C`: the neuronal differentiation score in the assay with ReNCell VM [1] (library: Spectrum) is inactive: 1. Moreover, the “dopaminergic neuron differentiation score” value in the assay with ReNCell VM [2] (library: Spectrum) is inactive: 0.

In the case of `O=NN(CCCl)C(=O)NCCCl` [Carmustine], in the assay on ReNCell VM [1] (library: LOPAC), the neuronal differentiation score is inactive: 0. The “dopaminergic neuron differentiation score” value in the assay with ReNCell VM [2] (library: LOPAC) was inactive: 0.

Turning to `COc1c(OC)c(OC)c2c(c1OC)c(=O)c1ccccc1n2C` [Melicopicine], the neuronal differentiation score with ReNCell VM [1] (library: Phytochemical) was inactive: 0. Moreover, the “dopaminergic neuron differentiation score” value in the assay on ReNCell VM [2] (library: Phytochemical) was inactive: 0.

As for `Cc1cccc(N(C)C(=S)Oc2ccc3ccccc3c2)c1` [Tolnaftate], the neuronal differentiation score in the assay on ReNCell VM [1] (library: Prestwick) was inactive: 0. Further, in the assay on ReNCell VM [2] (library: Prestwick), the “dopaminergic neuron differentiation score” value was inactive: 0.

For the compound `CCN(CC)CC#CCOC(=O)C(O)(c1ccccc1)C1CCCCC1` (centres undefined) [Oxybutynin Chloride], the neuronal differentiation score with ReNCell VM [1] (library: LOPAC) is inactive: 0. The “dopaminergic neuron differentiation score” value with ReNCell VM [2] (library: LOPAC) is inactive: 0.

For the compound `CN(N=O)C(=O)N[C@@H](C=O)[C@@H](O)[C@H](O)[C@H](O)CO` [Streptozocin], the neuronal differentiation score with ReNCell VM [1] (library: Tocriscreen) was inactive: 0. Further, the “dopaminergic neuron differentiation score” value in the assay on ReNCell VM [2] (library: Tocriscreen) was inactive: 0.

Take `CN(C/C=C/C#CC(C)(C)C)Cc1cccc2ccccc12`: in the assay with ReNCell VM [1] (library: Spectrum), the neuronal differentiation score was inactive: 0. The “dopaminergic neuron differentiation score” value in the assay on ReNCell VM [2] (library: Spectrum) was inactive: 0.

Consider `CCN1C(=O)NC(c2ccccc2)C1=O` (centres undefined) [Ethotoin], for which the neuronal differentiation score with ReNCell VM [1] (library: Prestwick) was inactive: 0. Also, the “dopaminergic neuron differentiation score” value with ReNCell VM [2] (library: Prestwick) is inactive: 0.

With `COc1ccc2[nH]c(=O)c3c(c2c1)OC(C)(C)C=C3` [haplamine], the neuronal differentiation score in the assay with ReNCell VM [1] (library: Natural) was inactive: -1. In addition, in the assay with ReNCell VM [2] (library: Natural), the “dopaminergic neuron differentiation score” value is inactive: 0.

Consider `O=c1[nH]cc(F)c(=O)[nH]1`, for which, in the assay with ReNCell VM [1] (library: Spectrum), the neuronal differentiation score is inactive: 0. Besides, in the assay on ReNCell VM [2] (library: Spectrum), the “dopaminergic neuron differentiation score” value is inactive: 0.

For `CCCCCCN(CCCCCC)C(=O)Cc1c(-c2ccc(Cl)cc2)[nH]c2ccc(Cl)cc12`, the neuronal differentiation score in the assay on ReNCell VM [1] (library: Tocriscreen) is inactive: 0. The “dopaminergic neuron differentiation score” value in the assay with ReNCell VM [2] (library: Tocriscreen) is inactive: 0.

Turning to `Cc1ccc(C(=O)Nc2ccc(S(=O)(=O)O)c3cc(S(=O)(=O)O)cc(S(=O)(=O)O)c23)cc1NC(=O)c1cccc(NC(=O)Nc2cccc(C(=O)Nc3cc(C(=O)Nc4ccc(S(=O)(=O)O)c5cc(S(=O)(=O)O)cc(S(=O)(=O)O)c45)ccc3C)c2)c1`, the neuronal differentiation score in the assay on ReNCell VM [1] (library: Spectrum) was inactive: 0. The “dopaminergic neuron differentiation score” value with ReNCell VM [2] (library: Spectrum) was inactive: 0.
